This note sets out measurements from article PMC6345565.

By UniProt entry, the sequences of proteins in these tests, tags left out. Where a name states a change or a piece, a line headed by the entry shows the natural chain unless it says otherwise.
UniProt Q9EP80: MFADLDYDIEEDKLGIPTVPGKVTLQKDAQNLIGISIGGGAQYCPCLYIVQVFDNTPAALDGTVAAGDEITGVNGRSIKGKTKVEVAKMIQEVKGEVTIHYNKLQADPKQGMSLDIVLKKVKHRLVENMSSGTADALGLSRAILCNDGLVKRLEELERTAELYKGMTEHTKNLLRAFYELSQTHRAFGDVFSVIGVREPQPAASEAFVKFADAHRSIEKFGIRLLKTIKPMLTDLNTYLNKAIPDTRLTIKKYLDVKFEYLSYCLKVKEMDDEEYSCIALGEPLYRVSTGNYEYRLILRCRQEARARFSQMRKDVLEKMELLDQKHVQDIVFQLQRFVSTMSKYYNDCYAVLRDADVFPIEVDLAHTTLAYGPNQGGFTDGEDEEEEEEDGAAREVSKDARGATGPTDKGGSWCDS

No constants are given. Whether binding was seen depends on the method and setting.

This test concerns the target SNAP-PICK1 WT (PICK1 with an N-terminal SNAP-tag, fluorescently labelled) (rat (Rattus norvegicus)) (UniProt Q9EP80). The experiment in a line: condition: only without subunit exchange (0.01% TX-100); two-colour co-binding on supported cell membrane sheets without monomer exchange; PICK1 A87L/A87L and PICK1 WT/WT mixed under no-exchange conditions (0.01% TX-100); both purified.

Turning to “SNAP-PICK1 A87L (from UniProt Q9EP80 1-416)”, the binding entry is “no binding”.
